# Test results as given in PubChem BioAssay AID1259415 (National Center for Advancing Translational Sciences (NCATS), 2018).
# Among all 410,000 compounds or so, about 18,000 (4.4%) were called active. The inconclusive results got no clear call from the source; some entries with a clear call stand among them for comparison. No stated cut-off is given here; in the data, active means activity change below about -60%; inconclusive means no clear call, values can overlap the other calls; inactive means above about -39%.
# Experiment: qHTS Assay for inhibitors of the human cytomegalovirus (HCMV)
# Conditions: HFF cells, HCMV-luciferase reporter, 72 h; at 57.5 µM; active compounds read low
# Summary of the method: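 Human foreskin fibroblasts infected with luciferase-reporter HCMV at MOI 1 PFU/cell, compounds at two doses. Luciferase measured 72 h post infection; normalized to buffer-only basal and Salinomycin (10uM) controls.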
# On the % scale 0 is the no-effect control and ±100 the full control effect.
row,Compound,"activity change, negative = inhibition"
1,O=C(c1ccccc1)N1N=C(C(F)(F)F)CC1(O)c1ccccc1O (stereo not drawn),inactive: 40.8%
2,O=C(CN1C(=O)NC2(CCc3ccccc32)C1=O)c1ccc(F)cc1 (stereo not drawn),inactive: -4.01%
3,Cc1ccc2c(CC(=O)NCCc3ccc(S(N)(=O)=O)cc3)coc2c1,inactive: -38.3%
4,N/C(=N\OC(=O)CCCc1ccccc1)c1ccccc1,inactive: 1.81%
5,CC(C)n1c(CSCc2ccc(Cl)cc2Cl)n[nH]c1=S,inconclusive: -43.8%
6,Cc1occc1-c1nnc(SCC(=O)Nc2nc(C(C)(C)C)cs2)o1,active: -69.4%
7,COc1ccc(CNC(=O)COC(=O)c2ccc(F)c(S(=O)(=O)N3CCCCC3)c2)cc1OC,inactive: 0%
8,Cc1cc2c(c(=O)o1)C(CCC1CCCCC1)C(C#N)=C(N)O2 (stereo not drawn),inconclusive: -47.1%
9,O=C(CN1CCCN(S(=O)(=O)c2ccc(Br)s2)CC1)Nc1ccc(Cl)cc1,inconclusive: -49%
10,CC(=O)Nc1sc2c(c1-c1nc3ccccc3s1)CN(C(C)C)CC2,active: -97.3%
11,O=C(O)C1(P(=O)(c2ccccc2)c2ccccc2)CCC1,inactive: 5.27%
12,Cc1ccccc1-n1c(/C=C/c2ccccn2)nc2ccccc2c1=O,active: -102%
13,Cc1ccc(S(=O)(=O)N(Cc2cc3ccccc3[nH]c2=O)CC2CCCO2)cc1 (stereo not drawn),inconclusive: -52.5%
14,Cc1nc(-c2ccc(S(=O)(=O)Nc3ccc(C)c(N(C)C)c3)cc2)co1,inconclusive: -52.8%
15,COc1ccc(CCNC(=O)c2ccc3c(c2)N(Cc2ccc(F)cc2)CCS3)cc1OC,inconclusive: -40.1%
16,CCOC(=O)c1c(NC(=S)N2CCN(C)CC2)sc(C)c1-c1ccccc1,inconclusive: -49.1%
17,N#Cc1cccc(NC(=O)c2cc3c(s2)-c2ccc(Cl)cc2SC3)c1,inconclusive: -49.7%
18,Cc1ccc(NC(=O)C2CCN(S(=O)(=O)c3ccc4c(c3)NC(=O)CO4)CC2)cc1C,inconclusive: 0%
19,Cc1ccc(NC(=O)CN(CCc2ccccc2)S(C)(=O)=O)cc1,inactive: -0.586%
20,C=CCc1ccc(OCCCCNC2CCCC2)c(OC)c1,inconclusive: -41.7%
21,Cc1ccccc1CN(C)C(=O)[C@H](Cc1ccccc1)NC(=O)c1ccco1,inactive: -6.29%
22,C[C@H](CCC(=O)O)[C@H]1CC[C@H]2[C@@H]3CC[C@@H]4C[C@H](O)CC[C@]4(C)[C@H]3C[C@H](O)[C@]12C,inconclusive: -40.4%

row,Compound,"activity change, negative = inhibition"
1,CSc1nc2c(c(=O)[nH]1)C(c1ccc(C(F)(F)F)cc1)CC(=O)N2 (stereo not drawn),inconclusive: -40.6%
2,O=C(Nc1ccon1)c1ccc(F)c(S(=O)(=O)N2CCCCC2)c1,inconclusive: -59%
3,O=C(O)C(=Cc1ccccc1)Cc1ccccc1,inactive: 11.7%
4,CCOc1cc(S(=O)(=O)n2c(C)nc3ccccc32)ccc1F,inactive: 18.8%
5,O=C(Nc1ccc(-c2cn3ccccc3n2)cc1)c1ccc(Cl)cc1,inactive: -21.2%
6,COC(=O)c1nc(N)sc1-c1ccccc1,inactive: 96.3%
7,COc1cc2oc(-c3ccc(O)cc3)cc(=O)c2c(O)c1OC,active: -110%
8,Cc1cc(N(CCCl)CCCl)ccc1C=NNC(=O)Cc1cc(=O)oc2cc(O)ccc12,inconclusive: -45.2%
9,Cc1ccc(OCC(=O)N(Cc2cccc(F)c2)C2CCS(=O)(=O)C2)cc1 (stereo not drawn),inconclusive: -42.5%
10,COc1ccc(C2=NOC(C(=O)NCc3ccc(F)cc3)C2)cc1OC (stereo not drawn),inconclusive: -59.5%
11,COc1ccc(C)cc1NS(=O)(=O)c1ccc2c(c1)CCN2C(C)=O,inconclusive: -43.3%
12,O=C(Cn1nnc(-c2ccccc2Cl)n1)Nc1cccc(S(=O)(=O)N2CCCC2)c1,inactive: -24.8%
13,CC(=O)c1ccc(NS(=O)(=O)c2c(C)cc(C)cc2C)cc1,inconclusive: -41.2%
14,Cc1cccc(NC(=O)CCNC(=O)c2ccc(Br)cc2)c1,inactive: 5.46%
15,Cc1cc(C)cc(OCC(=O)NCC2CCCO2)c1 (stereo not drawn),active: -65.3%
16,Cc1cc(C)c(S(=O)(=O)NCc2cccs2)cc1C,inconclusive: -44.7%
17,Cc1[nH]c(C)c2c(=O)n(Cc3ccc(Cl)cc3)ncc12,inconclusive: -48.3%
18,COc1ccc(N2CC(C(=O)NCc3cccnc3)CC2=O)cc1 (stereo not drawn),inconclusive: -45.2%
19,N=c1n(Cc2ccccc2)c2ccccc2n1CC(O)c1ccccc1 (stereo not drawn),inconclusive: -51.7%
20,COc1cc2c(cc1OC)-c1nnc(C)n1C1(CCCC1)C2,inconclusive: -51.2%
21,CCOc1ccc(CCNC(=O)C2CCCN(c3nnc(C)c4c(C)n(-c5ccccc5)nc34)C2)cc1 (stereo not drawn),inconclusive: -59.5%
22,Cc1cc(C)c(C)c(S(=O)(=O)Nc2ccccc2C(=O)NCCCN2CCOCC2)c1C,inconclusive: -41.8%

row,Compound,"activity change, negative = inhibition"
1,Cc1ccc(C)n1-c1ncc(Br)cn1,inconclusive: -42.8%
2,COc1cccc(N(C(=O)CCl)C(C(=O)NCCc2ccccc2)c2cccs2)c1 (stereo not drawn),active: -100%
3,CC(C)N(Cc1ccccc1)C(=O)COC(=O)c1ccc2c(c1)OCCO2,inactive: 18.2%
4,Cc1cc(C)n2nc(SCC(=O)N3CCC(C)CC3)nc2n1,inconclusive: -41.7%
5,O=C(N/N=C/c1ccc([N+](=O)[O-])o1)c1cc(-c2cccc(Br)c2)nc2ccccc12,active: -69.6%
6,Cc1nn(C)cc1CN1CCCC(C(=O)c2ccc(-c3ccccc3)cc2)C1 (stereo not drawn),active: -66.1%
7,COc1ccc(CC(=O)Nc2cccc(-c3nnc(-c4ccc(C)cc4)o3)c2)cc1OC,active: -93%
8,CCN1CC(CN(C)Cc2nc(-c3ccc(Cl)cc3)no2)CC1=O (stereo not drawn),inconclusive: -47.2%
9,CCOC(=O)CC(NC(=O)c1cc2cccc(OC)c2oc1=O)c1ccc(OC)cc1 (stereo not drawn),inconclusive: -50.9%
10,CC(=O)Nc1ccc(C(=O)NNS(=O)(=O)c2ccc(C)cc2)cc1,inconclusive: -47.9%
11,O=C(c1cc(-c2ccc(Br)cc2)n[nH]1)N1CCN(C(=O)c2ccccc2Br)CC1,inconclusive: -44.6%
12,COCCn1c(-c2ccccc2)nc2oc3cc(OC)ccc3c(=O)c2c1=O,inactive: -5.63%
13,O=C(OCc1c(-c2ccccc2)ncc2ccccc12)c1cccs1,inactive: 1.29%
14,COc1cc(O)cc(O)c1C(=O)/C=C/c1ccccc1,inconclusive: -51.7%
15,Oc1ccccc1-c1csc(-c2ccccc2)n1,inactive: 161%
16,O=C(NCc1cccnc1)c1ccc(NC(=O)c2ccc([N+](=O)[O-])cc2)cc1,inconclusive: -42.8%
17,Cc1cccc(C)c1OCC(O)CN (stereo not drawn),inactive: 10.2%
18,Cc1ccc(S(=O)(=O)NCC(=O)N2CCC(C)CC2)cc1,inconclusive: -45.5%
19,O=C(Cc1ccccc1)OCC(=O)N1CCN(S(=O)(=O)c2ccc(Cl)cc2)CC1,inconclusive: -42.1%
20,CCCN1C(=O)CC(c2ccc(OC)c(OC)c2)C1=O (stereo not drawn),inconclusive: -48.5%
21,NS(=O)(=O)c1ccc(CCNC(=O)c2ccccc2OCc2ccc(F)cc2)cc1,inconclusive: -55.8%
22,COc1ccccc1C(CNC(=O)CNC(=O)c1ccccc1Cl)N1CCCC1 (stereo not drawn),active: -101%

# Compounds listed so far that contain bromine (5):
row,Compound,"activity change, negative = inhibition"
9,O=C(CN1CCCN(S(=O)(=O)c2ccc(Br)s2)CC1)Nc1ccc(Cl)cc1,inconclusive: -49%
14,Cc1cccc(NC(=O)CCNC(=O)c2ccc(Br)cc2)c1,inactive: 5.46%
1,Cc1ccc(C)n1-c1ncc(Br)cn1,inconclusive: -42.8%
5,O=C(N/N=C/c1ccc([N+](=O)[O-])o1)c1cc(-c2cccc(Br)c2)nc2ccccc12,active: -69.6%
11,O=C(c1cc(-c2ccc(Br)cc2)n[nH]1)N1CCN(C(=O)c2ccccc2Br)CC1,inconclusive: -44.6%

# Later entries

row,Compound,"activity change, negative = inhibition"
1,CC1(C(=O)OCC(=O)NCCNC(=O)COC(=O)C2(C)CC2(Cl)Cl)CC1(Cl)Cl (stereo not drawn),inactive: -0.408%
2,CC1CCN(S(=O)(=O)c2cc(C(=O)Nc3ccccn3)ccc2Br)CC1,inconclusive: -47.6%
3,Cc1ccc(-c2nnn(CC(=O)N(Cc3ccco3)C(C(=O)NC(C)(C)C)c3cccs3)n2)o1 (stereo not drawn),inactive: -20.6%
4,Fc1ccc(C2=CCN(C(c3cccs3)c3nnnn3CCc3ccccc3)CC2)cc1 (stereo not drawn),inconclusive: -47.4%
5,O=C(O)c1ccc(COc2ccc3ccccc3c2/C=C2/NC(=O)N(c3ccccc3)C2=O)cc1,inactive: -6.1%
6,COc1ccc(/C=C/C2=CCN(C)CC2)cc1,inactive: 14.7%
7,COC(=O)c1[nH]c2cccc(Cl)c2c1NC(=O)CN1CCN(CCO)CC1,inactive: 24.4%
8,CC(=O)c1cn(CCOc2ccc(F)cc2)c2ccccc12,inactive: 8.64%
9,CCOc1ccccc1N1CCN(C(=O)c2ccncc2)CC1,inactive: 4.97%
10,O=C(CCc1ccccc1)N/N=C/c1cccc(O)c1,inconclusive: -47.6%
11,CC(=O)c1c(C(C)=O)c(C)n(-c2ccc(N)cc2)c1C,inconclusive: -48.2%
12,CCNC(=S)N/N=C/c1cn(Cc2ccc(F)cc2)c2ccccc12,inactive: -0.507%
13,Cc1cc(C)c2c(=O)cc(C(=O)NCCc3ccc(S(N)(=O)=O)cc3)oc2c1,inactive: 11.9%
14,O=C(Cn1cnc2c(nnn2Cc2ccc(F)cc2)c1=O)NCc1ccc(F)cc1,inactive: -4.36%
15,COc1ccc2c3c([nH]c2c1)C(C)=NCC3,inconclusive: -56.8%
16,COc1cccc(/C=C2/SC(=S)N(CCCC(=O)Nc3ccc(O)cc3)C2=O)c1,active: -99.4%
17,CCc1cc(C(=O)N2CCCC(N3CCN(c4cccc(C(F)(F)F)c4)CC3)C2)n(C)n1 (stereo not drawn),inconclusive: -56.8%
18,COc1ccc(OCC(O)CN2CCCCC2)cc1 (stereo not drawn),inconclusive: -45.3%
19,O=C(NCCN1CCC(n2c(=O)[nH]c3ccccc32)CC1)c1ccc(C(F)(F)F)cc1C(F)(F)F,inconclusive: -46%
20,O=C(N/C(=C/c1cccc(Br)c1)C(=O)N1CCCCC1)c1ccco1,inactive: -0.394%
21,COCCNC(=O)C1(C)CCCN(Cc2cn(C)c3ccccc23)C1 (stereo not drawn),inactive: -20.1%
22,COc1ccc(-n2cc(C(=O)Nc3cc([N+](=O)[O-])ccc3OC)c3ccccc3c2=O)cc1,inconclusive: -47.2%
